Data reported in patent US10501518B2 (priority 2013, dated 2019).

Experiment: general procedure: Fmoc solid-phase peptide synthesis; NovaPEG rink amide resin (EMD-Millipore); HBTU/HOBt/DIEA
Conditions: whole synthesis, analytical RP-HPLC, relative peak area

For SVSEIQLMHNLGKWLNSMERVEWLRKKLQDVHNF-NH2, the “final HPLC purity” value was over 99%.
